Laboratory results taken from article PMC8504577, “Evaluation of a Clinically Relevant Drug–Drug Interaction Between Rosuvastatin and Clopidogrel and the Risk of Hepatotoxicity” (Frontiers in Pharmacology, 2021).
pIC50: −log10 of the molar value. Entries after “also recorded” stand apart in the source; their conditions may differ. Like-named read-outs stand apart in the source and are kept apart here.

Tests used:
OATP1B1 [1] = conditions: ref Tamraz et al. (2013), cited from earlier work
OATP1B1 [2] = target: T1, OATP1B1 (Homo sapiens, UniProt Q9Y6L6)
T1 sequence (Q9Y6L6 1-691): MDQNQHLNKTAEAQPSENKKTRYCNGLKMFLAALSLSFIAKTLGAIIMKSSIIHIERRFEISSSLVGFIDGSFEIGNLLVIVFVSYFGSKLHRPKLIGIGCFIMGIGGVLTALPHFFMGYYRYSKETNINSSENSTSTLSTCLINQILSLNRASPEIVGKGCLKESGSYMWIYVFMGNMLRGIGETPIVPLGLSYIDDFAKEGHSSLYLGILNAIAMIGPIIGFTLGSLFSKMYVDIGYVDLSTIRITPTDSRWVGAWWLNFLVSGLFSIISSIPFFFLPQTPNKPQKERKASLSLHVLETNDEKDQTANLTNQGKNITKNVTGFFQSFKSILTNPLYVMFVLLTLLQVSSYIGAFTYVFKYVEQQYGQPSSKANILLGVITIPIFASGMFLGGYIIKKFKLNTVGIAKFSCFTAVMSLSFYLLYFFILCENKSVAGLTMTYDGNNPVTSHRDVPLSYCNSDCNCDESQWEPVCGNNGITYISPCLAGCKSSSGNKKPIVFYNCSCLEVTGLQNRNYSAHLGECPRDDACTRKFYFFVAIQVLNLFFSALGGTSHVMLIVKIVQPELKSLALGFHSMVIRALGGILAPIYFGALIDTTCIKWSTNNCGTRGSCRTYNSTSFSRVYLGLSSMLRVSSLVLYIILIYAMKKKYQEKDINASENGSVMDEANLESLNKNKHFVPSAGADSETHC
Procedure: (§1) The OATP1B1, OATP1B3, and mock cells were cultured in the DMEM medium containing 10% fetal bovine serum, penicillin–streptomycin solution (100 U/mL and 0.1 mg/ml), and 0.5 mg/ml geneticin at 37°C in the presence of 5% CO2. The cells were seeded in a 24-well plate at a density of 4×10^5 cells/well and grown for 80–90% confluence. […] After washing the cells three times with transporter buffer at 4°C, the cells were lysed with liquid nitrogen. The lysates were precipitated with methanol and centrifuged at 12,000 rpm at 4°C for 5 min. The supernatant was analyzed by LC-MS/MS. Protein concentration was determined using the Pierce® BCA Protein Assay Kit. All experiments were performed in triplicate.
(§2) Phoenix WinNonlin® 7.1 (Pharsight Corporation, Mountain View, CA, United States) was used to calculate the pharmacokinetic parameters by the noncompartmental method. IC50 values were obtained by a computer-generated nonlinear least squares fit using GraphPad Prism 8.1 (GraphPad Software, San Diego, CA, United States). Statistical analysis was performed using SPSS ver. 22.0 (IBM, Chicago, IL, United States). The results are presented as mean ± S.D., unless otherwise stated. After testing for the homogeneity of variance, statistical analysis was performed with a one-way ANOVA followed by the LSD post hoc test or unpaired Student’s t-test. A probability (p) of less than 0.05, 0.01, and 0.001 was considered to be statistically significant, highly significant, and extremely significant, respectively.

OATP1B3 = target: T2, OATP1B3 (Homo sapiens, UniProt Q9NPD5)
T2 sequence (Q9NPD5 1-702): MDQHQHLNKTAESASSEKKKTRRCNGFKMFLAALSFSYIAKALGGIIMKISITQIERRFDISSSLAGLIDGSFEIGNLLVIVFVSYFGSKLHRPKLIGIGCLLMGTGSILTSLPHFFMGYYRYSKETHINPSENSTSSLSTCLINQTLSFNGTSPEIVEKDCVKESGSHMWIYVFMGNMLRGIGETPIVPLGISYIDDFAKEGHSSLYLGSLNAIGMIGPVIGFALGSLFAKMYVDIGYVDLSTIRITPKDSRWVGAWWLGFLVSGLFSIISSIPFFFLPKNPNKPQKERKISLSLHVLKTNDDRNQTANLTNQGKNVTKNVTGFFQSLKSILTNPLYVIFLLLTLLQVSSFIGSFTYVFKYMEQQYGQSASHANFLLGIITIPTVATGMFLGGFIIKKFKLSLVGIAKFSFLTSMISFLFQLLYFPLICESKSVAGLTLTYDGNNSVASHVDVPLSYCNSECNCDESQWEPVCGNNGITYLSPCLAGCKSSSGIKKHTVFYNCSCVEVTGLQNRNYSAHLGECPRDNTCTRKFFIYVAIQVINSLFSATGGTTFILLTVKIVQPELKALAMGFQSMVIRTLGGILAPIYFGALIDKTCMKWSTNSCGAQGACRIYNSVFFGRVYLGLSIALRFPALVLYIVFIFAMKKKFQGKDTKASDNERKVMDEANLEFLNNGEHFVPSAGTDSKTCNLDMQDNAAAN
Procedure: as §1, §2

[3] = fu×I1
[4] = Plasma pharmacokinetic study in rats; conditions: estimated with human unbound fraction 0.06
Procedure: For the plasma pharmacokinetic study, 16 rats were randomly assigned into four groups (n = 4, each group, groups I to IV) and received oral (p.o.) administrations as oral gavage of CP (27 mg/kg) or the same volume of vehicle control for 20 days. Then, the rats were made to fast overnight before dosing but with free access to water. On day 21, rats in group I were treated with a p.o. dose as oral gavage of CP at 27 mg/kg and a single intravenous (i.v.) dose of RSV at 5 mg/kg. Rats in group II were treated with a p.o. dose as oral gavage of vehicle control and a single i.v. dose of RSV at 5 mg/kg. Rats in group Ⅲ were treated with a p.o. dose as oral gavage of CP at 27 mg/kg and a p.o. dose as oral gavage of RSV at 5 mg/kg. Rats in group Ⅳ were treated with a p.o. dose as oral gavage of vehicle control and a p.o. dose as oral gavage of RSV at 5 mg/kg. Blood samples (0.15 ml) were collected at 0, 1, 2, 5, 15, 30, 60, 120, 180, 360, 480, 600, and 720 min after administration of the i.v. dose of the RSV group and at 0, 5, 30, 60, 120, 180, 360, 480, 600, and 720 min for the p.o. dose as oral gavage of the RSV group. After each sampling, a volume of 0.15 ml physiologic saline solutions was administered to sustain isotonic fluid balance. Plasma samples were harvested by using a centrifuge and then stored at −80°C until analysis by LC-MS/MS. […]

BCRP = target: T3, BCRP (Homo sapiens, UniProt Q9UNQ0); test: Inhibition of RSV transport in BCRP-expressing membrane vesicles; type: biochemical; set-up: purchased GenoMembrane Co., Ltd. (Yokohama, Japan) GM0008; host or cells: Sf9 insect cells; conditions: 1 μM RSV, read-out: IC50 BCRP-mediated RSV transport
T3 sequence (Q9UNQ0 1-655): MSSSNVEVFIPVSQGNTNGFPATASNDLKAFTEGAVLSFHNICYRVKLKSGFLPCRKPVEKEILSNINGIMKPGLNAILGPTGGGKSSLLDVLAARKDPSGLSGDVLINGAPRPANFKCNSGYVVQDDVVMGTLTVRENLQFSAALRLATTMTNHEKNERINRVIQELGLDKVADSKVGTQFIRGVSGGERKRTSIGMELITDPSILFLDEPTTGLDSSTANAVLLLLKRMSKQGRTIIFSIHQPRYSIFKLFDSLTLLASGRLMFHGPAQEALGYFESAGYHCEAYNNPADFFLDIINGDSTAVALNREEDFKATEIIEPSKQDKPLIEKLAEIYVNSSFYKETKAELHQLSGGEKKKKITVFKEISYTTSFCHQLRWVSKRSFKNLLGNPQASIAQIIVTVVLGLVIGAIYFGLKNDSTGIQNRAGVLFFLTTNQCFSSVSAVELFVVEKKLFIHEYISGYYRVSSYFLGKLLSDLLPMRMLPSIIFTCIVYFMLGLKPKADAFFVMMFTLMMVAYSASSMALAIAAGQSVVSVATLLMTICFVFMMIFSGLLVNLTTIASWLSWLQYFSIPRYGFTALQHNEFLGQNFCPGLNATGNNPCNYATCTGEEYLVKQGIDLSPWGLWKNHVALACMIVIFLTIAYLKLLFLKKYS
Procedure: The vesicular transport activity was determined by the 96-well rapid filtration method in BCRP- and MRP2-expressing membrane vesicles. […] Meanwhile, 5 μL RSV (final concentration, 1 μM) and 20 μL reagent C2 were pre-incubated at 37°C for 5 min. Then, the transport was initiated by mixing them in a 50 μL reaction system and incubated for the designated time at 37°C. The transport was terminated by adding 200 μL of cold buffer B2 at 4°C. Then, the mixture was filtered using a 96-well filter plate. After washing the vesicles five times with 200 μL of cold buffer B2 at 4°C, the vesicles were lysed with 50 μL of 80% […] twice and then centrifuged at 2000 rpm/min for 2 min. Lysates were collected and then centrifuged at 12,000 rpm/min for 5 min. The supernatants were injected onto the LC-MS/MS. The same procedures were applied to AMP-containing samples except that reagent D2 was used instead of reagent C2. All experiments were performed in quadruplicate.
Statistical analysis was performed using SPSS ver. 22.0 (IBM, Chicago, IL, United States).

[5] = test system: human primary hepatocytes
Procedure: Cytotoxicity was determined with MTT assay in cryopreserved human hepatocytes. Thawing and plating of cryopreserved hepatocytes were carried out according to the manufacturer’s protocol. Primary human hepatocytes at a density of 7×10^4 cells/well were cultured for 24 h after plating in 96-well collagen-coated plates. Then, the hepatocytes were treated with varying concentrations of RSV, CP, RSV plus CP, or tamoxifen and incubated for 24 or 96 h at 37°C. 11 μL of 5 mg/ml MTT was added to each well of the plate, and then the plate was incubated at 37°C for 3–4 h. After the medium was aspirated, 150 μL of DMSO was added to dissolve the formazan. The absorbance at 570 nm was measured and corrected for background absorption at 690 nm using a SpectraMax® i3 plate reader (Molecular Devices, Silicon Valley, CA, United States). AST and LDH levels in the medium of parallel processed plates were measured by commercially available assay kits. […] All experiments were performed in triplicate.
A Shimadzu LC-20AD liquid chromatography system (Shimadzu, Kyoto, Japan) and an API5000 triple quadrupole tandem mass spectrometer (Applied Biosystems/Sciex, Framingham, MA, United States) coupled with an electrospray ionization (ESI) source was used for the determination of in vitro samples. Chromatographic separation was conducted with gradient elution on a Synergi Hydro-RP column (30 × 2.0 mm, 4 μm, Phenomenex, Torrance, CA, United States). […] The mobile phase consisted of methanol (A) and water (B), both containing 0.1% (V/V) formic acid. The flow rate was 0.5 ml/min and the gradient elution was run using the following program: 0.01 min (15% A)-1.0 min (95% A), 1.5 min (95% A)-1.51 min (15% A), 2.5 min (stop).

[6] = ref Itkonen et al. (2015), cited from earlier work
[7] = estimated assuming same unbound fraction as plasma

O=C(O)[C@H](c1ccccc1Cl)N1CCc2sccc2C1 [CPC, clopidogrel carboxylic acid]
pIC50 (OATP1B1 [1]; substrate cerivastatin, read-out: IC50 OTAP1B1 (cerivastatin, CER, as substrate)): < 4.00 | pIC50 (OATP1B1 [1]; substrate estrone sulfate, read-out: IC50 OTAP1B1 (estrone sulfate, ES, as substrate)): < 4.00 | Inhibition of OATP1B1-mediated RSV transport (OATP1B1 [2]; 1 μM RSV, 0.05–50 μM): did not inhibit; also recorded: had no effects | pIC50 (OATP1B1 [2]; read-out: IC50 OATP1B1-mediated transport of RSV, 1 μM RSV as substrate, HEK293 cells): < 4.30 | Inhibition of OATP1B3-mediated RSV transport (OATP1B3; 1 μM RSV, CPC 0.05–50 μM): did not inhibit; also recorded: had no effects | pIC50 (OATP1B3; read-out: IC50 OTAP1B3, RSV as substrate): < 4.30 | Imax,u, unbound steady-state plasma peak concentration ([3]; 75 mg CP): 0.443 µM | Imax,u, unbound steady-state plasma peak concentration ([3]; 300 mg CP): 1.914 µM | Unbound plasma concentration ([4]; group I): 3.74 µM | Unbound plasma concentration ([4]; group III): 5.05 µM | pIC50 (BCRP): 5.22 | Concentrations in cells and mediums ([5]; RSV plus 100 μM CP): remained high | Free medium concentration [5, 7]: 0.79 to 1.31 µM | Unbound intracellular concentration [5, 7]: 7.42 to 9.11 µM | I1, peak plasma concentration at steady state ([6]; 75 mg CP): 7.38 [Itkonen et al. (2015)] μM | I1, peak plasma concentration at steady state ([6]; 300 mg CP): 31.90 [Itkonen et al. (2015)] μM
